Test results reported in PubChem BioAssay AID1671190 (National Center for Advancing Translational Sciences (NCATS), 2021).
Screen size: about 580,000 compounds; about 6,100 (1.1%) were called active. The shares of active, inactive and inconclusive entries below differ from those in the screen. Calls come from the whole dose curve; as a rule, active = well fitted inhibition curve with a large enough effect; inconclusive = small, poorly fitted or top-dose-only effect, or another doubt; inactive = no such curve, though single readings can be large or run the other way. A potency beside an inconclusive call is a rough fit, not a confirmed value.
% is set by controls: 0 for no effect and ±100 for the full control effect; potency is the fitted concentration of half-maximal effect.

By UniProt entry, the sequences of proteins in these tests, tags left out. Where a name states a change or a piece, a line headed by the entry shows the natural chain unless it says otherwise.
UniProt P18054: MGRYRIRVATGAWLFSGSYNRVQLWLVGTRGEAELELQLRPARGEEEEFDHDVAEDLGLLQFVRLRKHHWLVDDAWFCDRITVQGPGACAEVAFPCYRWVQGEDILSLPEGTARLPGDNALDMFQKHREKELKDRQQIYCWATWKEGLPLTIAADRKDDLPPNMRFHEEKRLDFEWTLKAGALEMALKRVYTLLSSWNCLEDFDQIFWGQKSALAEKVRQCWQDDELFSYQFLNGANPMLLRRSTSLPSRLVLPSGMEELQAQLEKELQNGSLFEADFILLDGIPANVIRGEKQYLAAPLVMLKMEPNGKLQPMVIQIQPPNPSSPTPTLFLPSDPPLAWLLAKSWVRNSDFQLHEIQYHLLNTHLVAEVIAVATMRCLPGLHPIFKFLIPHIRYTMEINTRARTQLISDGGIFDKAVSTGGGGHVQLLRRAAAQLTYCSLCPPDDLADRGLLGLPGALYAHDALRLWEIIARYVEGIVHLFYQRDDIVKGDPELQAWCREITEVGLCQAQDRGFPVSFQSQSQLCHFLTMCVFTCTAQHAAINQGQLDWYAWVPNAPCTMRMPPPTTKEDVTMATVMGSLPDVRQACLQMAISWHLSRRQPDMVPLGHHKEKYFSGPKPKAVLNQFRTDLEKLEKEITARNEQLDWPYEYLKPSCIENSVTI

Each molecule was assayed against Polyunsaturated fatty acid lipoxygenase ALOX12 (Homo sapiens) (UniProt P18054) (assay: Primary qHTS assay for inhibitors of human arachidonate 12S-lipoxygenase (ALOX12): Round 2). Conditions: purified 12hLO, xylenol orange hydroperoxide absorbance; activity change, negative = inhibition: at 108 µM (top of the series) unless noted.
How it was run: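 Purified human 12hLO at 150 nM in 25 mM Hepes, 0.01% Triton X-100, pH 7.0, preincubated 15 min at room temperature with compound. Reaction started with 40 uM arachidonic acid, 30 min at room temperature. Hydroperoxide measured by Fe-xylenol orange, 573/405 nm absorbance ratio.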
`CC(=O)c1nc(N2C(=O)CC(Cc3ccccc3)C2=O)sc1C` (stereo not drawn) was tested, and the Potency was inconclusive: 31.6 µM [inhibitor, partial curve, poor fit].
For `O=C(Nc1ccc(Cl)c(-c2nc3ncccc3o2)c1)c1ccco1`, the “activity change, negative = inhibition” value was inactive: 32.8%.
With `Cn1ncc(S(=O)(=O)Cc2ccccc2)c(Cl)c1=O` the Potency was active: 14.1 µM.
With `CN(C)/C=C\C(=O)c1ccc(F)cc1` the Potency was inconclusive: 44.7 µM [inhibitor, partial curve, poor fit].
With `C[C@@H](NC(=O)[C@@]1(O)C[C@@H](O)[C@H](O)[C@@H](NC(=O)Nc2ccc(OC(F)(F)F)cc2)C1)C(N)=O` the “activity change, negative = inhibition” value was inactive: 21.3%.
With `N#Cc1nc(-c2ccc(COc3ccc4ccccc4c3)o2)oc1N1CCC(C(N)=O)CC1` the Potency was inconclusive: 17.8 µM [inhibitor, full curve, poor fit].
For `Cc1nc(-c2coc3cc(OCC(=O)O)ccc3c2=O)cs1`, the “activity change, negative = inhibition” value was inactive: -23.8%.
With `CC(C)(C)Cc1c(-c2ccc(F)cc2)nc2ccc(Br)cn12` the Potency was inconclusive: 39.8 µM [inhibitor, partial curve, poor fit].
`C/C(=N/Nc1ccccc1)C1(C)N(O)C(C)(C)C(c2ccc(C)cc2)=[N+]1[O-]` (stereo not drawn) was tested, and the Potency was inconclusive: 0.355 µM [inhibitor, full curve, poor fit].
With `O=C(O)CSc1ccc(Cl)cc1` the Potency was inconclusive: 112 µM [inhibitor, partial curve, poor fit].
For `C/C(CC12CC3CC(CC(C3)C1)C2)=N\O`, the “activity change, negative = inhibition” value was inactive: -3.34%.
For `N[C@H](C(=O)O)C1[C@H](C(=O)O)[C@H]1C(=O)O` (stereo partly drawn), the Potency was inconclusive: 7.08 µM [inhibitor, full curve, poor fit].
`Cc1cc(C(=O)Cn2c(Cl)nc3c2c(=O)n(C)c(=O)n3C)c(C)n1C1CC1` was tested, and the “activity change, negative = inhibition” value was inactive: 6.93%.
`CCC(=O)NC(=S)Nc1cccc(Cl)c1N1CCCCC1` was tested, and the “activity change, negative = inhibition” value was inactive: 0%.
In the case of `Cc1onc(-c2cnn(C)c2NCc2ccc(C#N)cc2)c1C(=O)Nc1ccccc1`, the Potency is reported as inconclusive: 7.94 µM [inhibitor, full curve, poor fit].
`CCCc1nc(C)n2ccn(Cc3cccc(C#N)c3)c(=O)c12` was tested, and the “activity change, negative = inhibition” value was inactive: 38%.
For `N#Cc1nc(COc2ccc(Br)cc2)oc1NC1CC1`, the Potency was inconclusive: 31.6 µM [inhibitor, partial curve, poor fit].
For `CNc1ncncc1-c1c(C)noc1C`, the Potency was inconclusive: 50.1 µM [inhibitor, partial curve, poor fit].
With `COc1cccc(/C=C2\SC(=S)N(C(C(=O)O)c3ccccc3)C2=O)c1OC` (stereo not drawn) the Potency was inconclusive: 35.5 µM [inhibitor, partial curve, poor fit].
In the case of `CCCCN(C(=O)CC1OC(=O)c2ccccc21)c1c(N)n(CCCC)c(=O)[nH]c1=O` (stereo not drawn), the Potency is reported as inconclusive: 31.6 µM [inhibitor, partial curve, poor fit].
`O=S(=O)(N1CC=C(c2c[nH]c3cc(F)ccc23)CC1)N1CCCCCC1` was tested, and the Potency was active: 15.8 µM.
With `Cc1cc(NC(=O)c2ccccc2C)no1` the Potency was inconclusive: 35.5 µM [inhibitor, partial curve, poor fit].
`COc1ccccc1N1CCN(Cc2cc(=O)c(OCC(=O)NC(C)C)co2)CC1` was tested, and the “activity change, negative = inhibition” value was inactive: 7.31%.
With `Cc1ccc(S(C)(=O)=O)cc1NCc1ccc(F)cc1Br` the “activity change, negative = inhibition” value was inactive: -29.2%.
For `O=c1ncn2nc(Sc3ccc(F)cc3F)ccc2c1-c1c(Cl)cccc1Cl`, the “activity change, negative = inhibition” value was inactive: 38.3% [at 57.4 µM].
For `O=C(NCc1ccco1)c1cccc2c1C(=O)c1ccc(/C=C/c3ccccc3)cc1S2(=O)=O`, the Potency was inconclusive: 50.1 µM [inhibitor, partial curve, poor fit].
For `CC(C)(C)c1ccc(S(=O)(=O)Nc2ccc(O)c(Sc3nc4ccccc4s3)c2)cc1`, the Potency was inconclusive: 10 µM [inhibitor, partial curve, poor fit].
With `CCOc1ccccc1NC(=O)c1cc(S(=O)(=O)NC2CCCC2)ccc1F` the “activity change, negative = inhibition” value was inactive: -12.2%.
For `COc1cccc(-c2cnc(NCc3ccccc3Cl)n2C)c1`, the Potency was inconclusive: 44.7 µM [inhibitor, full curve, poor fit].
For `O=C(C1CCCN(Cc2ccc(F)cc2)C1)N1CCCCC1` (stereo not drawn), the Potency was inconclusive: 0.447 µM [inhibitor, full curve, poor fit].
With `Cc1ccc(S(=O)(=O)Nc2cc3c(cc2Cl)n(C)c(=O)c(=O)n3C)cc1` the Potency was inconclusive: 112 µM [inhibitor, single point].
`Cn1nccc1OCc1cn2c(=O)n(C)cc(-c3ccccc3F)c2n1` was tested, and the Potency was inconclusive: 50.1 µM [inhibitor, partial curve].
For `CC1(c2nnc(Cc3ccccc3)o2)CC(c2ccc(Cl)cc2)=NO1` (stereo not drawn), the “activity change, negative = inhibition” value was inactive: 12.3%.
With `Cc1cc(S(=O)(=O)NCCCN2CCOCC2)ccc1Br` the Potency was inconclusive: 89.1 µM [inhibitor, single point].
For `COc1cccc(C(=O)N2CCCC(c3nn(-c4ccc(Cl)cc4)c(=O)[nH]3)C2)c1` (stereo not drawn), the Potency was inconclusive: 70.8 µM [inhibitor, single point].
With `Cc1ccc(OCCN(C)C(=O)COc2ccc3c(C)cc(=O)oc3c2)cc1` the “activity change, negative = inhibition” value was inactive: 16.7%.
With `CN1CCN([C@@H]2[C@H](O)[C@H](CO)O[C@@H]2CN(Cc2ccc(Cl)cc2)Cc2cccc(Cl)c2)CC1` the Potency was active: 14.1 µM.
In the case of `COC(=O)C1=C(C)N(Cc2cccc(C(F)(F)F)c2)C(=NCC2CC2)NC1c1ccc(F)cc1` (stereo not drawn), the Potency is reported as inconclusive: 44.7 µM [inhibitor, partial curve, poor fit].
In the case of `Cc1cc(C)n2nc(CC(=O)Nc3nc(-c4cccc(Cl)c4)cs3)nc2n1`, the “activity change, negative = inhibition” value is reported as inactive: 5.77%.
`CC(C)(CNC(=O)c1cccc(NS(=O)(=O)c2ccc(Br)cc2)c1)N1CCOCC1` was tested, and the Potency was inconclusive: 89.1 µM [inhibitor, single point].
In the case of `O=C(Nc1ccccc1)N1CCCN(c2ccc(C(F)(F)F)cn2)CC1`, the Potency is reported as inconclusive: 100 µM [inhibitor, single point].
For `CN1CCN([C@@H]2[C@H](O)[C@H](CO)O[C@@H]2CNS(=O)(=O)c2cccs2)CC1`, the Potency was inconclusive: 20 µM [inhibitor, full curve].
`O=C(O)CCSCC(=O)c1ccc(Br)cc1` was tested, and the Potency was inconclusive: 39.8 µM [inhibitor, partial curve, poor fit].
